Results on three substances are retold here after publication PMC8582390.

Protein sequences, listed by entry. Tags and fused reporters are not part of them.
UniProt Q15910: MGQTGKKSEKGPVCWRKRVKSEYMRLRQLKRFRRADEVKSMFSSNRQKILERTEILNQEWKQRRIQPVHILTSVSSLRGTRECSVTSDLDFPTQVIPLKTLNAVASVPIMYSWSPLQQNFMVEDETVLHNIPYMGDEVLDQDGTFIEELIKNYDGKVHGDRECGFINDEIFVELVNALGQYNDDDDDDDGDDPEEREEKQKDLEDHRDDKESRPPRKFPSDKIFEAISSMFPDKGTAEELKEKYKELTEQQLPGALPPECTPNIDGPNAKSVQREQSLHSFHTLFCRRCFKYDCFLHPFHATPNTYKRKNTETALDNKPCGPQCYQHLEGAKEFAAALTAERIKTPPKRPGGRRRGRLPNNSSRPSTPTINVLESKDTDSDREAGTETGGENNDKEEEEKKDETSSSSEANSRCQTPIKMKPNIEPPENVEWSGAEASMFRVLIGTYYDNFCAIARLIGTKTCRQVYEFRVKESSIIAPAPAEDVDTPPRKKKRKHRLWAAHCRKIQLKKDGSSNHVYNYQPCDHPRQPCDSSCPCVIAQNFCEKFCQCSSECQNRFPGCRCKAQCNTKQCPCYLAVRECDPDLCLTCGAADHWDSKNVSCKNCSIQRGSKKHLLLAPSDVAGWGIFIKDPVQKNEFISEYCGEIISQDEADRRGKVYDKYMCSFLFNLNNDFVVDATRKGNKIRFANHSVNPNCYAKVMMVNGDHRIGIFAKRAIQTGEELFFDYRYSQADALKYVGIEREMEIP
UniProt P40763: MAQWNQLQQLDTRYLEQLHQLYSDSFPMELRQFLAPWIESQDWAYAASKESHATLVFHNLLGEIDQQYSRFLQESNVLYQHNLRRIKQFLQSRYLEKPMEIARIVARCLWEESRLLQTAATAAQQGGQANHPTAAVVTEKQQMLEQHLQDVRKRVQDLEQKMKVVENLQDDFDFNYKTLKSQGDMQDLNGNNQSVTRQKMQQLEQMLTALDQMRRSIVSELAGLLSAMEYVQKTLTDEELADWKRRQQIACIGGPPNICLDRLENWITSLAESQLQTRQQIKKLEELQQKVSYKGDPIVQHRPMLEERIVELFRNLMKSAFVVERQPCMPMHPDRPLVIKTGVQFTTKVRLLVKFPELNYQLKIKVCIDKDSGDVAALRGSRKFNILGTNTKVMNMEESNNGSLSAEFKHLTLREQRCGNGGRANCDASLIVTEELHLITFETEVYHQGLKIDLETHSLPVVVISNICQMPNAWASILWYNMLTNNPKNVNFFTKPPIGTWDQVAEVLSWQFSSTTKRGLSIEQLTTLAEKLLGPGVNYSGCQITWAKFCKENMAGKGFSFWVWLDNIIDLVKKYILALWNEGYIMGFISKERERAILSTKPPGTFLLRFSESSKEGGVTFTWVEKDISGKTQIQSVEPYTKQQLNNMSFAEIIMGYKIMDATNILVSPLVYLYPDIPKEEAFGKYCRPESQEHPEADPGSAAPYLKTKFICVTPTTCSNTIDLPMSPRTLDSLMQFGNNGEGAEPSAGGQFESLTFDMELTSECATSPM
UniProt P08047: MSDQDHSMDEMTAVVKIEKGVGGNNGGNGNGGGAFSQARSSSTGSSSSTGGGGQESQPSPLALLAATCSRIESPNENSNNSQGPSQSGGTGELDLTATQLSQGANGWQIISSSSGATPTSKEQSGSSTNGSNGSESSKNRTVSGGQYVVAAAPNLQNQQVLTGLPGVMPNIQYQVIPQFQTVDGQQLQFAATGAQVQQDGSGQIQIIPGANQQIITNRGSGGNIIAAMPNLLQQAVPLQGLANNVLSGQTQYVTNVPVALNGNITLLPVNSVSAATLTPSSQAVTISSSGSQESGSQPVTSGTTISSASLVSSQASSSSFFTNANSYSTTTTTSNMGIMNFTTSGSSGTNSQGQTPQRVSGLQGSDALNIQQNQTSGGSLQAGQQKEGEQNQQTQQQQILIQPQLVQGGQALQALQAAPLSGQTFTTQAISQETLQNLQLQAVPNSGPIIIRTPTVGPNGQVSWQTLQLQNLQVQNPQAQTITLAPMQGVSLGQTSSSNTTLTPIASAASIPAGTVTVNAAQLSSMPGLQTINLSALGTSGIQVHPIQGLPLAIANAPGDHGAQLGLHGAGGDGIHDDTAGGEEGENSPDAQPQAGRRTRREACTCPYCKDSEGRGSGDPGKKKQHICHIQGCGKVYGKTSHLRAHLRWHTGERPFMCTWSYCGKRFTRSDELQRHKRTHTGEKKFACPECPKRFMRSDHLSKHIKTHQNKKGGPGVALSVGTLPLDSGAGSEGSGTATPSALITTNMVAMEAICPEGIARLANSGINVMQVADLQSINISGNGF
UniProt Q04206: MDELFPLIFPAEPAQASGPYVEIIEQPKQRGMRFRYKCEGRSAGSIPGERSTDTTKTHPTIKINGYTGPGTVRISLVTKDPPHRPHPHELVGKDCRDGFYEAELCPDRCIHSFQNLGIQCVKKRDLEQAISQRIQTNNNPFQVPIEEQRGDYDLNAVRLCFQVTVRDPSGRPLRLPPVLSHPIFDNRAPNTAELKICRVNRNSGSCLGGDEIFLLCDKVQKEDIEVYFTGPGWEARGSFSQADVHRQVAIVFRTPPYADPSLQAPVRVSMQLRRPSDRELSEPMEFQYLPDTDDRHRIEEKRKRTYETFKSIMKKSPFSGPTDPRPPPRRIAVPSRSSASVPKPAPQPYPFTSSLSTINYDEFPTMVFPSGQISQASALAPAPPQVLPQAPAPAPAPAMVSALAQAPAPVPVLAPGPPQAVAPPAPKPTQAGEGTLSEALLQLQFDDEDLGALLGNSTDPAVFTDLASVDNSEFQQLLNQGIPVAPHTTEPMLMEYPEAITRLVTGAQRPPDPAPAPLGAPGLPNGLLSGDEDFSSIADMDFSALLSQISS

The test deals with Enhancer of zeste homolog 2 (human (endogenous in PANC-1, MIA PaCa-2, Capan-1)) (UniProt Q15910). Description: co-IP; nuclear proteins (100 μg) of PANC-1, MIA PaCa-2 and Capan-1 cells precipitated with IP-grade EZH2 antibody or IgG for 16 h at 4 °C, protein A agarose beads, PBS washes, immunoblot; cells with or without 5-HT (10 μM, 96 h). For orientation: In western blotting, separated proteins are transferred to a membrane and probed.

No constants are given. Whether binding was seen depends on the method and setting. Binding seen in cells or lysates may run through a third protein. Some binding calls cover weakened binding; strength is not graded here.

On to STAT3 (from UniProt P40763 1-770), for which the binding entry is “binds”.

With Sp1 (from UniProt P08047 1-785), the binding entry is “binds”.

As to NF-κB P65 (from UniProt Q04206 1-551), the binding result is “binds”.
